Patent US20210205365A1, “Chimeric Growth Factor Receptors” (Instil Bio (UK) Ltd., priority 2018, published 2021)
For at least one compound, name, drawing or mass did not settle the structure.

How the values were obtained:
[1] = test system: phospho-STAT5; assay: Induction of pSTAT5 in CrGFR expressing T-cells; type: cell-based, human; settings: CrGFR expressing T-cells from 4 donors treated for four hours
Experimental: FIG. 15—Induction of pSTAT by chimeric recombinant growth factor receptors. Primary human T-cells were isolated and transduced with the indicated CrGFR. Cells were enriched for CrGFR expression using Miltenyi MACS technology and expanded via polyclonal stimulation. The enriched cells were stimulated for 4 h with either media alone (RPMI), IL2, IL12, Tpo or Eltrombopag (Elt) before methanol fixation and intracellular staining with antibodies towards phospho-STAT5.
Finally, Applicants validated the signalling potential of the novel CrGFR by conducting phospho STAT analysis upon treatment of CrGFR expressing T-cells with media, cytokine or drug. To this end T-cells from 4 donors were transduced with either the wt TpoR, TpoR. CD40 or TpoR.IL2rγ, enriched for CrGFR expression using paramagnetic bead selection protocols and then expanded using polyclonal stimulation. The cells were treated for four hours with media alone (RPMI), IL-2, Tpo or Eltrombopag (Elt) before methanol fixation, permeabilization and analysis using pSTAT specific antibodies. STAT molecules are the key drivers of cell signalling upon cytokine activation of cells, pSTAT5 in particular is key to IL-2 activity.

[2] = target: T1, thrombopoietin receptor (Homo sapiens, UniProt P40238); settings: preclinical studies; cited from earlier work
T1 sequence (P40238 26-635): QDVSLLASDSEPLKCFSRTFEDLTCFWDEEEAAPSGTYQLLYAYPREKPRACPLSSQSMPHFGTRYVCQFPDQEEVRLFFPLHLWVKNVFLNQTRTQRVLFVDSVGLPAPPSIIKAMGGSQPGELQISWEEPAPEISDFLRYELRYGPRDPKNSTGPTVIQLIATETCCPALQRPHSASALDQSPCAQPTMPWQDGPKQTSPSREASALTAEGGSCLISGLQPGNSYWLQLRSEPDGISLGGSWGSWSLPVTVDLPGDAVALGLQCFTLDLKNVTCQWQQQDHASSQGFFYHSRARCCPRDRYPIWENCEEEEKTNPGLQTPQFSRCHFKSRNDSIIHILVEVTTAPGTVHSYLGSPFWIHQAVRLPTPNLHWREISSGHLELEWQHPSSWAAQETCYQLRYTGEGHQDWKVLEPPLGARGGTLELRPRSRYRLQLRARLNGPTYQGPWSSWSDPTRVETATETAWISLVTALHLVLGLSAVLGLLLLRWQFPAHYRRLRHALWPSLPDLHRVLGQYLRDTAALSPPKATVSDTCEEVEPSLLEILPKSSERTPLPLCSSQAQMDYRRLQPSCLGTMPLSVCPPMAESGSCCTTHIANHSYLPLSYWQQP

[3] = test system: circulating platelets; settings: 73 healthy volunteers, higher doses; cited from earlier work
[4] = test system: platelet counts; settings: animal studies; cited from earlier work
[5] = test system: Ba/F3 cells; assay: CrGFR activity in Ba/F3 cells incubated with IL-3 or Eltrombopag; type: cell-based, murine; settings: all the receptors
[6] = test system: ovarian TIL; assay: CrGFR in ovarian TIL mixed with patient matched tumour cells; type: cell-based, human; settings: donor 1, addition of Eltrombopag
Experimental: FIG. 14—Analysis of Chimeric recombinant Growth Factor Receptors in Ovarian TIL. Tumour Infiltrating Lymphocytes from ×3 ovarian TIL were transduced with the WT TpoR or indicated variant CrGFR and incubated in the presence of patient matched tumour cells with either Eltrombopag or no growth factors. Cells were analysed and counted at days 4 and 7 and the number of cells expressing the receptor assessed using PE conjugated anti-CD110 antibodies, DRAQ7 viability dye and a MACSQuant analyser. Graphs show counts between days 4 and 7 when recovery of TIL occurs after an initial contraction in numbers driven by tumour regulatory factors and/or activation induced cell death.
Applicants evaluated further the effect of the CrGFR in ovarian TIL. Three ovarian TIL populations were engineered to express either the WT, or TpoR.CD40, TpoR.IL2rγ or TpoR.LMP1-Cyt variant receptors and mixed with patient matched tumour cells in the presence or absence of Eltrombopag. Counts of total and CD110+ cells were made after 4 and 7 days. Applicants observed specific expansion of the CrGFR+ cells in the presence of tumour between days 4 and 7 in donors 2 and 3 with all the receptors except the TpOR.LMP1.cyt.

CC1=NN(c2ccc(C)c(C)c2)C(=O)/C1=N\Nc1cccc(-c2cccc(C(=O)O)c2)c1O [Eltrombopag]
induction of pSTAT5 by cytokine or drug [1]: showed induction of STAT5 activity
JAK-STAT signalling pathway [2]: activation
interaction with the thrombopoietin receptor [2]: interact selectively
proliferation and differentiation of megakaryocytes [2]: increased proliferation and differentiation
number of circulating platelets [3]: larger increases
platelet counts [4]: could increase platelet counts
enrichment of CrGFR expressing Ba/F3 cells by the added ligand [5]: could be enriched in the population
protection of the cells from AICD (activation-induced cell death) [6]: appeared to protect the cells from AICD
